Measurements reported in PubChem BioAssay AID602254 (Broad Institute, 2012).
Among all 1,000 compounds or so, fewer than 10 were called active.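 How the source made its calls: active means fitted half-maximal concentration no higher than twice the top valid tested dose, with signal falling; inconclusive means flat curve with 30 to 70% inhibition, or poor fit; inactive means the rest.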 The list shows a part of the results. Results with a measured potency or affinity are listed apart.

biological target: Golgi-associated PDZ and coiled-coil motif-containing protein (Homo sapiens) (UniProt Q9HD26); experiment: blockers of CAL PDZ–TMR peptide complex – biochemical, fluorescence polarization, untagged CAL PDZ, cherry-pick, set 2, dose response (AID 602254); conditions: Purified CAL PDZ; at 60 µM (top of the series);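 further: 0% = DMSO neutral control and -100% = unlabeled peptide PRC23 positive control; more negative means stronger blocking of peptide binding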

SMILES | activity change, negative = inhibition
O=C(c1ccc2c(c1)OCO2)C1CCCN(CC2CCCCC2)C1 (stereo unspecified) | inactive: 0.484%
CC(NC(=O)Cc1cccc2ccccc12)C(=O)N1CCC(=O)CC1 (stereo unspecified) | inactive: -0.614%
O=C(Nc1ccc(Cl)cc1)OC1CN2CCC1CC2 (stereo unspecified) | inactive: -0.582%
Cc1ccc(-c2nc3ccccc3c(=O)n2-c2cccc(O)c2)cc1 | inactive: 3.18%
CNC(=S)N1CCn2cccc2C1c1cccnc1 (stereo unspecified) | inactive: 2.59%
Cc1ccnc(NC(=O)CCCc2ccc(N(CCCl)CCCl)cc2)n1 | inactive: -0.792%
N#CCCn1cc(C(=O)NCc2ccccc2)c(-c2ccc3c(c2)OCCO3)n1 | inactive: 0.227%
CC(C)Oc1cccc(C(=O)C2CCCN(Cc3ccon3)C2)c1 (stereo unspecified) | inactive: -0.697%
CCc1nc2ccc(N3CCN(C)CC3)cc2nc1CC | inactive: -0.813%
CN1CC(C(=O)c2cccc(C(F)(F)F)c2)C(c2ccc(Cl)cc2)C1 (stereo unspecified) | inactive: 2.48%
CC(=O)N1CCCSC1=Nc1ccccc1 | inactive: 1.94%
CC(=NCc1cccnc1)c1c(O)n(-c2ccc(Cl)cc2)c(=O)[nH]c1=O | inactive: -1.62%
COc1ccc(C(CNC(=O)Cc2ccc(Cl)c(Cl)c2)N2CCCCC2)cc1 (stereo unspecified) | inactive: -5.77%
CCN(CC)C(=O)c1ccc(NC(=O)CCCSc2ccccc2)cc1 | inactive: 0.247%
C=CC1CN2CCC1CC2C(OC(C)=O)c1ccnc2ccc(OC)cc12 (stereo unspecified) | inactive: 0.064%
COc1cccc(CNCCc2ccc(F)cc2)c1 | inactive: -0.902%

Some of these compounds in order of length of the SMILES, descending:
SMILES | activity change, negative = inhibition
CCN(CC)C(=O)c1ccc(NC(=O)CCCSc2ccccc2)cc1 | inactive: 0.247%
O=C(c1ccc2c(c1)OCO2)C1CCCN(CC2CCCCC2)C1 (stereo unspecified) | inactive: 0.484%
COc1cccc(CNCCc2ccc(F)cc2)c1 | inactive: -0.902%
